The source of these data is PubChem BioAssay AID2685 (National Center for Advancing Translational Sciences (NCATS), 2010).

The list shows a part of the results. Further columns of the screen follow, without active or inactive calls. Most of these compounds were active or inconclusive in the main read-out, so they are no random draw. Words in brackets tell the shape of the fitted curve; partial curves, single points and poor fits give uncertain potencies.

The nature of the assay: qHTS Assay for Lipid Storage Modulators in Drosophila S3 Cells.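 On cell number change: cells counted by Cell Tracker Red CMTPX staining in the red channel.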 To be noted: BODIPY lipid droplet fluorescence, 18-24 h; for cell number change: measured here: cell count max response, cells fed with added oleic acid. The essentials:
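Drosophila S3 cells got compounds at several concentrations plus oleic acid (400 uM solution). Laser-scanning cytometry with 488 nm excitation read lipid droplets at 500-530 nm and cells at 575-640 nm. Percent activity was relative to 20 uM Triacsin C.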

Where [1] appears, read: measured here: lipid fluorescence (Fed channel) AC50, cells fed with added oleic acid.
Setting [2] is: measured here: cell number channel AC50, cells fed with added oleic acid.

Consider `Cc1cc(NS(=O)(=O)c2ccc(NC(=O)C(F)(F)F)cc2)nc(C)n1`, for which the cell number change was 30.7%.

On to `COc1cc(C(=O)NC(=S)Nc2ccc3[nH]c(=O)[nH]c3c2)cc(OC)c1OC`, for which the cell number change amounted to 35.5%.

In the case of `CCN(CC)CCN(Cc1cc2cc3c(cc2[nH]c1=O)OCCO3)C(=S)NCCCN(C)C`, the cell number change is -23.7%. Under setting [1], the AC50 (usually the concentration giving half of the maximal activity seen) was 0.116 µM [falling, full curve, poor fit]. In the case of `O=[N+]([O-])c1ccc(COc2ccc(-c3[nH]ncc3-c3ccc(Cl)cc3)c(O)c2)cc1`, the cell number change was -69.4%. The AC50 under setting [2] was 11.6 µM [falling, partial curve]. In addition, the AC50 under setting [1] was 10.3 µM [falling, partial curve]. Take `CC(=O)c1ccc(OC(=O)c2ccc(Br)o2)cc1`: the cell number change came to 2.5%. Regarding `Cc1ccc(Nc2nc(=O)c3cccnc3s2)c(Br)c1`, the cell number change is 8.77%. In addition, the AC50 under setting [1] is 29.1 µM [rising, single point]. For `CC(CCC(=O)O)(c1ccc(O)cc1)c1ccc(O)cc1`, the cell number change was -2.82%. The AC50 under setting [1] was 0.00517 µM [falling, full curve, poor fit]. With `CC(C)c1ccccc1NC(=S)NCC1(N(C)C)CCCCC1`, the cell number change stood at 9.83%.

Consider `Cc1c(S(=O)(=O)Nc2cccc(Cl)c2)c(=O)n(C)c(=O)n1C`, for which the cell number change was found to be 7.24%. Further, under setting [1], the AC50 was 0.00517 µM [falling, full curve, poor fit]. Regarding `Cc1ccc(C)c(NC(=S)c2ccccn2)c1`, the cell number change was -9.21%. For the same molecule, the AC50 under setting [2] was 6.51 µM [rising, single point]. In addition, under setting [1], the AC50 is 4.11 µM [rising, full curve]. Take `O=[N+]([O-])c1cccnc1S(=O)(=O)c1ccccc1`: the cell number change was -0.518%. With `Cc1nc(NC2=NCN(Cc3ccco3)CN2)nc2ccccc12`, the cell number change was -3.93%. Further, under setting [1], the AC50 was 0.291 µM [rising, single point]. `CC(NC(=O)COc1cccnc1[N+](=O)[O-])c1ccc(Cl)cc1` (stereo not drawn): the cell number change is -1.26%. Moreover, the AC50 under setting [1] is 3.66 µM [rising, full curve]. For `Cc1cc(C)c2c(N)c(C(=O)c3ccccc3Cl)sc2n1`, the AC50 under setting [1] is 0.058 µM [rising, full curve].

With `COc1ccc(C(C(=O)NC2CCCC2)N(C(=O)c2ccoc2C)c2ccccc2)cc1` (stereo not drawn), the cell number change came out at 9.67%. The same measure, in the same setting: the figure for `CN(C)Cc1c(O)ccc2c(=O)c(-c3ccccc3)c(C(F)(F)F)oc12` is -0.676%. On to `Cc1cc(C)nc(SCc2csc(N)n2)n1`, for which the cell number change is -24.2%. Moreover, under setting [1], the AC50 is 6.51 µM [rising, single point]. As to `CCCn1c(SCc2ccccn2)nc2c1c(=O)n(C)c(=O)n2C`, the cell number change was 3.09%. For the same molecule, under setting [1], the AC50 is 0.0731 µM [falling, full curve, poor fit]. Turning to `CCOC(CNC(=O)c1cc(C)nn1-c1ccccc1)OCC`, the cell number change was -10.3%. Also, under setting [2], the AC50 was 0.731 µM [falling, full curve]. As to `N/C(Cn1cncn1)=N\NC(=O)c1ccc(Cl)cc1Cl`, the cell number change is -19.9%. Further, the AC50 under setting [2] was 7.31 µM [falling, single point]. Moreover, the AC50 under setting [1] is 5.8 µM [falling, partial curve]. On to `COc1ccc(C(=O)c2c(N)sc3c2CCN(C(=O)OC(C)(C)C)C3)cc1`, for which the cell number change stood at 2.21%. In addition, the AC50 under setting [1] is 0.0058 µM [rising, full curve, poor fit]. As for `COc1ccc(F)cc1C(=O)C1CCCN(C(=O)c2cccc(N(C)C)c2)C1` (stereo not drawn), the cell number change is -19.5%. Besides, under setting [1], the AC50 was 29.1 µM [falling, single point]. For the molecule `CCN1/C(=C/c2ccc3ccccc3[n+]2CC)C=Cc2ccccc21`, the cell number change stood at 111%. Also, the AC50 under setting [2] was 2.59 µM [rising, full curve]. Besides, the AC50 under setting [1] was 1.16 µM [falling, full curve].

In the case of `COc1ccc(C(=O)N2CCN(C(=O)Cc3ccccc3)CC2)cc1OC`, the cell number change is 29.9%. Further, the AC50 under setting [1] is 4.11 µM [rising, single point]. As for `O=C(NCc1ccc2c(c1)OCO2)C1CC(=O)N(CCc2ccc(Cl)cc2)C1` (stereo not drawn), the cell number change was determined as 6.52%.

For `O=C(Cc1ccc2c(c1)OCCO2)N/N=C/c1ccco1`, the cell number change is -7.27%. The AC50 under setting [1] was 29.1 µM [rising, single point]. Take `O=S(=O)(c1ccccc1)c1nc(-c2cccs2)oc1NCCCn1ccnc1`: the cell number change came out at 7.68%. Also, the AC50 under setting [2] was 1.46 µM [rising, full curve]. Also, the AC50 under setting [1] was 1.3 µM [rising, partial curve]. As to `Cc1ccccc1CSCC(=O)Nc1ccccc1Br`, the cell number change was -21%. For the same molecule, the AC50 under setting [1] is 29.1 µM [falling, single point]. For `COc1ccc(F)cc1S(=O)(=O)NCc1cc(=O)n(C)c(=O)n1C`, the cell number change amounted to 9.14%. Also, under setting [1], the concentration at half-maximal activity (AC50) is 29.1 µM [rising, single point]. On to `Cc1ccc(C)c(OCC(O)CN2C(C)CCCC2C)c1` (stereo not drawn), for which the cell number change is -52.3%. Also, under setting [2], the AC50 is 29.1 µM [falling, single point]. Also, the AC50 under setting [1] is 23.1 µM [falling, single point].

Take `CCN1CCN(c2nc3c(C)cccn3c(=O)c2/C=C(\C#N)S(=O)(=O)c2ccc(C)cc2)CC1`: the AC50 under setting [2] is 0.116 µM [rising, full curve, poor fit]. In the case of `COc1ccc(Oc2coc3c(CN(C)C)c(O)ccc3c2=O)cc1`, the cell number change is 22.4%. The AC50 under setting [1] is 29.1 µM [rising, single point]. In the case of `O=C(Nc1ccc(Cc2ccc(NC(=O)C3CC3)cc2)cc1)C1CC1`, the cell number change is -4.74%. Moreover, the AC50 under setting [1] is 29.1 µM [falling, single point]. As to `COc1ccccc1CNC(=O)COC(=O)C1=COCCO1`, the cell number change stood at 12.4%. Also, the AC50 under setting [1] was 4.61 µM [falling, single point].

For `COc1ccc(N2CCN(C(=O)CSc3nnnn3C3CC3)CC2)cc1`, the cell number change was determined as 4.28%. Further, the AC50 under setting [1] is 29.1 µM [rising, single point].

Consider `O=C(CNc1cccc(S(=O)(=O)N2CCOCC2)c1)Nc1cccc(Br)c1`, for which the AC50 under setting [1] is 6.51 µM [rising, single point].

On to `COc1ccc(C2CC2/C(C)=N/OC(=O)c2ccc(F)cc2)cc1` (stereo not drawn), for which the cell number change stood at 0.342%. Regarding `Clc1ccc(SCc2cn3ccccc3n2)cc1`, the cell number change is 18.9%. On to `COc1ccc(CCNC(=O)c2cc(C(=O)c3cc(C)ccc3O)cn(CCc3ccc(OC)cc3)c2=O)cc1`, for which the cell number change is -78.8%. Further, the AC50 under setting [2] was 11.6 µM [falling, partial curve, poor fit]. For the same molecule, the AC50 under setting [1] is 32.6 µM [falling, single point]. Take `CCNc1cc(S(=O)(=O)C(F)(F)F)ccc1N`: the cell number change is -0.57%. In addition, the AC50 under setting [1] is 29.1 µM [falling, partial curve, poor fit]. For the molecule `COc1ccc(/C=N/NC(=O)c2[nH]c3ccc(Br)cc3c2-c2ccccc2)c(C(=O)O)c1OC`, the cell number change came out at 4.8%. The AC50 under setting [1] was 29.1 µM [rising, single point]. For the molecule `CCCCCCCCCC[N+](C)(C)CC/C=C1/c2ccccc2Sc2ccc(Cl)cc21`, the cell number change was -63%. Moreover, the AC50 under setting [2] is 11.6 µM [falling, partial curve]. The AC50 under setting [1] was 13 µM [falling, partial curve]. With `Cc1[nH]nc2c1C(c1ccc(-c3ccccc3C#N)o1)C(C#N)=C(N)O2` (stereo not drawn), the cell number change was -25.3%. Moreover, the AC50 under setting [1] was 0.103 µM [rising, full curve, poor fit]. Regarding `Cc1cccc(-n2c(=S)[nH]c3c(oc4ccccc43)c2=O)c1`, the cell number change turned out to be 1.02%. Regarding `CCOC(=O)C1=C(O)/C(=C\c2ccc(CNC(=O)C(=O)Nc3ccccc3)o2)N=C1C`, the cell number change amounted to 44.6%. Moreover, under setting [2], the AC50 is 11.6 µM [rising, partial curve]. On to `CCn1nnnc1-c1ccc(OC)c(S(=O)(=O)Nc2ccc(C(=O)OC)cc2)c1`, for which the cell number change stood at 3.37%. The AC50 under setting [1] is 20.6 µM [rising, partial curve]. For the molecule `O=S(=O)(c1ccc(Cl)cc1)c1cc(O)ccc1O`, the cell number change is -32%. Moreover, the AC50 under setting [2] is 0.00461 µM [falling, full curve, poor fit]. `Cc1cc(C)c(S(=O)(=O)Nc2ccncc2)cc1C`: the cell number change is -24.7%. Regarding `CCN1CCN(C(=O)CCCn2c(C)c3cnn(-c4ccccc4)c(=O)c3c2C)CC1`, the cell number change was -2.48%. Also, the AC50 under setting [1] is 29.1 µM [rising, single point]. Regarding `CCc1cc2c(COC(=O)c3c(C)noc3C)cc(=O)oc2cc1O`, the cell number change was -33.3%. For the same molecule, the AC50 under setting [2] was 25.9 µM [falling, single point]. In addition, under setting [1], the AC50 is 14.6 µM [falling, single point]. On to `CCCC(=O)Nc1ccc(NC(=O)C23CC4CC(CC(C4)C2)C3)cn1`, for which the cell number change is -3.04%. For the same molecule, the AC50 under setting [1] is 0.517 µM [falling, full curve].

As for `Cn1c(=O)c2c(nc(Cl)n2CCOc2ccccc2)n(C)c1=O`, the cell number change is -54%. Besides, the AC50 under setting [2] is 29.1 µM [falling, single point]. Moreover, the AC50 under setting [1] is 29.1 µM [falling, single point]. `Cc1cccn2c(=O)c(C=O)c(N3CCN(c4ccccc4)CC3)nc12`: the cell number change was -15.4%. In addition, under setting [1], the AC50 was 6.51 µM [falling, partial curve, poor fit]. In the case of `COc1ccccc1C(=O)Nc1ccc2c(c1)nc(CN1CCN(C(C)=O)CC1)n2C`, under setting [2], the AC50 is 6.51 µM [rising, single point].

For the molecule `N#Cc1nc(-c2cccs2)oc1N1CCN(c2ccccc2)CC1`, under setting [2], the AC50 was 4.61 µM [rising, partial curve, poor fit]. On to `O=C(NCC1CCCO1)/C(=C\c1ccccc1F)NC(=O)c1ccccc1` (stereo not drawn), for which the cell number change was determined as 3.81%. Moreover, under setting [1], the half-maximal activity concentration (AC50) is 29.1 µM [falling, single point].

As for `N=C(N)N=Nc1c(O)[nH]c2ccc(Br)cc12`, the cell number change was -2.3%. On to `CCc1ccc(-c2cc(C(=O)NCc3ccccn3)c3ccccc3n2)cc1`, for which the cell number change was -6.24%. The AC50 under setting [1] was 2.59 µM [rising, full curve, poor fit]. As to `CCn1c2ccccc2c2cc(CNCCCN3CCOCC3)ccc21`, the cell number change was determined as 3.31%. Besides, the AC50 under setting [1] was 29.1 µM [rising, single point]. In the case of `Fc1ccc(CSc2nsc(SCc3ccc(F)cc3)n2)cc1`, the cell number change amounted to 17.4%. The AC50 under setting [1] is 29.1 µM [rising, single point].

As for `CC(C)Oc1ccccc1C1Nc2ccccc2C(=O)N1c1ccc2c(c1)OCCO2` (stereo not drawn), the cell number change is -10.3%. Also, the AC50 under setting [2] is 1.64 µM [rising, partial curve]. `Nc1c(Br)c(=O)[nH]c(=O)n1-c1ccccc1`: the cell number change came out at 26.1%. Besides, under setting [2], the AC50 is 1.84 µM [rising, full curve, poor fit]. In the case of `COc1ccc(/C=N/NC(=S)Nc2ccccc2)cc1COc1cccc(C)c1C`, the cell number change turned out to be 0.486%. Under setting [1], the AC50 is 0.00461 µM [rising, full curve, poor fit].
